Experimental data published in the supplement of paper PMC8326762, “A Small Molecule Inhibitor of Pex3–Pex19 Interaction Disrupts Glycosome Biogenesis and Causes Lethality in Trypanosoma brucei” (Frontiers in Cell and Developmental Biology, 2021).
Structures can show the parent of a compound that is named as a salt. This is one part of the list. Single values of this set are uncertain.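 Optical density at 600 nm measured yeast growth. Because the two-hybrid strains grew without histidine, growth required Pex3–Pex19 binding. Trypanosome selectivity meant a compound inhibited the trypanosome-pair strain's growth by more than 65% but the human-pair strain's by less than 65%.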

Tests used:
[1] = tested on: Saccharomyces cerevisiae HF7c pdr5Δ; experiment: general growth inhibition of yeast HF7c pdr5Δ in -Leu -Trp medium, relative to DMSO; higher = stronger general growth inhibition; conditions: 100 µM; 24 h
[2] = tested on: human PEX3-PEX19 interaction (yeast two-hybrid); experiment: growth inhibition of yeast two-hybrid strain reporting HsPex3-HsPex19 interaction, relative to DMSO; higher = stronger inhibition of human Pex3-Pex19 interaction / growth; conditions: 100 µM; 24 h; 3-aminotriazole 10 mM
[3] = tested on: T. brucei Pex3-Pex19 interaction (yeast two-hybrid); experiment: growth inhibition of yeast two-hybrid strain reporting TbPex3-TbPex19 interaction, relative to DMSO; higher = stronger inhibition of T. brucei Pex3-Pex19 interaction / growth; conditions: 100 µM; 24 h

SMILES	general growth inhibition [1] [%]	growth inhibition [2] [%]	growth inhibition [3] [%]
O=C1N=C(O)NC1(c1ccccc1)c1ccccc1 [Phenytoin sodium]	16.3	17.4	35
CC(C)[C@H]1c2ccc(F)cc2CC[C@@]1(CCN(C)CCCc1nc2ccccc2[nH]1)OC(=O)C1CC1	46.4	72.8	73.7
CCCc1c(OCCCOc2ccc(OCC(=O)O)cc2)ccc(C(C)=O)c1O	46.3	30.4	47.4
Nc1ncnc2c1ncn2[C@@H]1O[C@H](COP(=O)(O)CP(=O)(O)OP(=O)(O)O)[C@H](O)C1O (stereo partly drawn) [alpha,beta-Methylene adenosine 5'-triphosphate dilithium]	55.1	47.6	66.5
CC1=C(/C=C/C(C)=C/C=C/C(C)=C/C(=O)Nc2ccc(O)cc2)C(C)(C)CCC1 [Retinoic acid p-hydroxyanilide]	1.06	-2.62	25.4
N.N.N.N.N.N.N.N.N.N.N.N.N.N.O.O.[Cl-].[Cl-].[Cl-].[Cl-].[Cl-].[Cl-].[Ru+4].[Ru+5].[Ru+5] [Ruthenium red]	60.5	36.1	52.6
CCN(CC)CCOC(=O)c1ccc(N)cc1 [Procaine hydrochloride]	19.1	24.3	43.7
Nc1cc(Cl)c(NC2=NCCN2)c(Cl)c1 [p-Aminoclonidine hydrochloride]	45.7	41.8	63.6
COc1ccccc1N1CCN(CCN2C(=O)CC3(CCCC3)CC2=O)CC1 [BMY 7378 dihydrochloride]	32.7	47.1	61.6
O=C(O)C1CCCNC1 (racemic) [(±)-Nipecotic acid]	40.6	39.9	59.6
O=c1[nH]c2ccccc2c2ccccc12 [6(5H)-Phenanthridinone]	67.5	57.5	62.3
Oc1ccccc1O [Pyrocatechol]	46.8	44.1	59.5
CC(CN1c2ccccc2Sc2ccccc21)N(C)C (stereo not drawn) [Promethazine hydrochloride]	58	45	70.9
O=c1cc(N2CCOCC2)oc2c(-c3ccccc3)cccc12 [LY-294,002 hydrochloride]	55	49.6	63.5
Cc1ccc(S(=O)(=O)N[C@@H](Cc2ccccc2)C(=O)CCl)cc1 [N-p-Tosyl-L-phenylalanine chloromethyl ketone]	89.1	81.2	80.2
CC(=O)OC(C)C[N+](C)(C)C (stereo not drawn) [Acetyl-beta-methylcholine chloride]	53.9	47.1	63.2
Clc1ccc(C(c2ccc(Cl)cc2)[n+]2ccn(CC(OCc3ccc(Cl)cc3Cl)c3ccc(Cl)cc3Cl)c2)cc1 (stereo not drawn) [Calmidazolium chloride]	79.2	78.5	77.1
CCC(=O)N1CCN(C(=O)c2ccccc2)CC1	24.6	44.3	43
CCOC(=O)C1=C[C@]2(CC)CCCN3CCc4c(n1c1ccccc41)[C@@H]32 [Vinpocetine]	49.5	35.8	60.3
CCN(CC)CCOC(=O)c1cc(Cl)c(N)cc1OC [SDZ-205,557 hydrochloride]	55.6	53.9	60
C=CCN1CCc2c(cc(O)c(O)c2Cl)C(c2ccccc2)C1 (racemic) [(±)-Chloro-APB hydrobromide]	19.5	22.1	36.9

A few values from the results shown:
In growth inhibition [3] [%], Cc1ccc(S(=O)(=O)N[C@@H](Cc2ccccc2)C(=O)CCl)cc1 [N-p-Tosyl-L-phenylalanine chloromethyl ketone] is listed with 80.2
In general growth inhibition [1] [%], O=c1cc(N2CCOCC2)oc2c(-c3ccccc3)cccc12 [LY-294,002 hydrochloride] is listed with 55

Remaining list, next part.

SMILES	general growth inhibition [1] [%]	growth inhibition [2] [%]	growth inhibition [3] [%]
NCCNS(=O)(=O)c1cccc2c(Cl)cccc12 [A3 hydrochloride]	55.6	43.7	58.7
Cn1cnc2c1c(=O)[nH]c(=O)n2C [Theobromine]	55.2	50.9	63.7
CC(=O)NC(C(=O)O)C(C)(C)SN=O (stereo not drawn) [S-Nitroso-N-acetylpenicillamine]	56.4	54.1	65.2
CCN(CC)C(=S)SSC(=S)N(CC)CC [Tetraethylthiuram disulfide]	90.8	87.5	83.6
Cc1cccc(C#Cc2ccccc2)n1 [6-Methyl-2-(phenylethynyl)pyridine hydrochloride]	48.9	40	57.1
C=CCc1cccc(/C=N/NC(=O)CN2CCN(Cc3ccccc3)CC2)c1O	48.6	31.9	45.9
CCCCCCC(=O)OC1CC(C)(C)NC(C)(C)C1 [TMPH hydrochloride]	15.8	4.92	28.5
O=C(O)CNC(=O)C(CS)Cc1ccccc1 (racemic) [DL-Thiorphan]	57.1	48.5	63.2
CCCCC1C(=O)N(c2ccccc2)N(c2ccccc2)C1=O [Phenylbutazone]	43.7	22.4	36.3
CCCCCC[C@@H]([C@@H](C)O)n1cnc2c(N)ncnc21 [erythro-9-(2-Hydroxy-3-nonyl)adenine hydrochloride]	31.5	31.5	58.5
CC1CCN=C(N)S1 (racemic) [(±)-AMT hydrochloride]	7.6	10.1	34.6
CCN(CC)C(=O)c1ccc(O)c(OC)c1 [Vanillic acid diethylamide]	27.4	46.7	63.4
C[N+](C)(C)CC(=O)O [Betaine hydrochloride]	37.3	45.3	57.8
COc1ccccc1N1CCN(CCCNc2c(C)c(=O)n(C)c(=O)n2C)CC1 [Urapidil, 5-Methyl-]	11.8	6.91	37.5
Oc1cc2c(c(Cl)c1O)CCNCC2c1ccccc1 (racemic) [(±)-6-Chloro-PB hydrobromide]	47.3	47.3	62.1
N#CC(C#N)=C(N)/C(C#N)=C/c1ccc(O)cc1 [Tyrphostin AG 112]	58.7	49.6	68.5
CC(/C=C/c1cccc(Oc2ccc(F)cc2)c1)N(O)C(N)=O (stereo not drawn)	32.5	33.4	59.3
O=C(c1ccc2c(c1)OCCO2)N1CCCCC1	25.6	41.9	52
Clc1ccc2c(c1)C(N1CCNCC1)=Nc1ccccc1O2 [Amoxapine]	41.7	39.7	62.8
COc1cccc2c1[C@@H]1CN(CCCCn3c(=O)[nH]c4c(sc5ncc(-c6ccccc6)nc54)c3=O)C[C@@H]1CO2 [Fiduxosin hydrochloride]	84.4	79.8	77.9
